Results from the supplement of paper PMC5393889.
This is one part of the list.

Each molecule was assayed on Caenorhabditis elegans N2 (assay: aldicarb interaction hit call (worm growth perturbed in combination with 10 uM aldicarb in both replicates, no effect as single agent) (binary (1 = interacts)); higher = interacts with aldicarb (growth perturbed)). Conditions: first compound 1.5 µM; aldicarb concentration 10 µM; 6 days; 20 °C.

SMILES	aldicarb interaction hit call
Oc1ccccc1-c1nc(/C=C/c2ccc(F)cc2)n[nH]1 [wact-536] + CNC(=O)O/N=C/C(C)(C)SC [aldicarb]	inactive: 0
O=C(N/N=C/c1ccncc1)c1n[nH]c2c1CCCC2 [mezole-1] + CNC(=O)O/N=C/C(C)(C)SC [aldicarb]	inactive: 0
C#CCOc1ccc2ccccc2c1Br [wact-357] + CNC(=O)O/N=C/C(C)(C)SC [aldicarb]	inactive: 0
Cc1ccc(-c2nnc3n2C(C)(C)Cc2ccccc2-3)cc1 [wact-431] + CNC(=O)O/N=C/C(C)(C)SC [aldicarb]	inactive: 0
Fc1ccccc1NC(=S)Nc1ccc(Cl)c(Cl)c1 [wact-528] + CNC(=O)O/N=C/C(C)(C)SC [aldicarb]	inactive: 0
CC(=O)Nc1ccc(S(=O)(=O)C(CC(=O)c2ccccc2)c2ccc(N(C)C)cc2)cc1 (configuration not stated) [wact-503] + CNC(=O)O/N=C/C(C)(C)SC [aldicarb]	inactive: 0
C#Cc1ccccc1COc1c(Cl)cc(/C=N/NC(=O)c2cc3ccccc3o2)cc1OC [wact-359] + CNC(=O)O/N=C/C(C)(C)SC [aldicarb]	inactive: 0
O=C1CC(c2cccs2)Sc2nc3ccccc3n21 (configuration not stated) [wact-469] + CNC(=O)O/N=C/C(C)(C)SC [aldicarb]	inactive: 0
Nc1ccc2oc(-c3ccc(Cl)cc3)nc2c1 [wact-395] + CNC(=O)O/N=C/C(C)(C)SC [aldicarb]	inactive: 0
CC(C)c1ccc(-c2nc3cc(N)ccc3o2)cc1 [wact-130] + CNC(=O)O/N=C/C(C)(C)SC [aldicarb]	inactive: 0
COc1ccc(-c2noc(-c3ccccc3[N+](=O)[O-])n2)cc1 [wact-502] + CNC(=O)O/N=C/C(C)(C)SC [aldicarb]	inactive: 0
Cc1cc(I)ccc1OCCCN(C)C.Cl [wact-144] + CNC(=O)O/N=C/C(C)(C)SC [aldicarb]	inactive: 0
O=C(c1cccc(Br)c1)N1CCN(c2ccnc3cc(Cl)ccc23)CC1 [wact-116] + CNC(=O)O/N=C/C(C)(C)SC [aldicarb]	inactive: 0
CN(Cc1ccccc1)c1cc(-c2ccccc2)ncn1 [wact-189] + CNC(=O)O/N=C/C(C)(C)SC [aldicarb]	inactive: 0
CC(Oc1ccccc1)c1nc(-c2ccc(Cl)cc2)no1 (configuration not stated) [wact-185] + CNC(=O)O/N=C/C(C)(C)SC [aldicarb]	inactive: 0
c1ccc2c(c1)CCC2NCc1c[nH]nc1-c1cc2ccccc2o1 (configuration not stated) [wact-266] + CNC(=O)O/N=C/C(C)(C)SC [aldicarb]	inactive: 0
Cc1cc([N+](=O)[O-])ccc1NCc1ccccc1 [wact-594] + CNC(=O)O/N=C/C(C)(C)SC [aldicarb]	inactive: 0
Brc1ccc2[nH]c3c(c2c1)CCCC3NCc1ccccc1 (configuration not stated) [wact-392] + CNC(=O)O/N=C/C(C)(C)SC [aldicarb]	inactive: 0
c1ccc(-c2noc(-c3cccs3)n2)cc1 [wact-7] + CNC(=O)O/N=C/C(C)(C)SC [aldicarb]	inactive: 0

SMILES	aldicarb interaction hit call
CSc1cc(-c2ccccc2)ncn1 [wact-197] + CNC(=O)O/N=C/C(C)(C)SC [aldicarb]	inactive: 0
CCOc1cc(Cl)c(S(=O)(=O)NCc2ccncc2)cc1Cl [wact-132] + CNC(=O)O/N=C/C(C)(C)SC [aldicarb]	inactive: 0
c1ccc(C2CCC(N3CCN(c4ccccc4)CC3)CC2)cc1 (configuration not stated) [wact-48] + CNC(=O)O/N=C/C(C)(C)SC [aldicarb]	inactive: 0
Oc1cccc2ccc(/C=C/c3cccs3)nc12 [wact-605] + CNC(=O)O/N=C/C(C)(C)SC [aldicarb]	active: 1
CN(Cc1cnn(C)c1)Cc1cn(-c2ccc(F)cc2)nc1-c1ccccc1Cl [wact-316] + CNC(=O)O/N=C/C(C)(C)SC [aldicarb]	inactive: 0
CN1CCN(c2ccc3c(ccc4c5ccccc5[nH]c34)n2)CC1 [wact-612] + CNC(=O)O/N=C/C(C)(C)SC [aldicarb]	inactive: 0
Clc1ccc(-c2noc(CSc3ccccc3)n2)cc1 [wact-14] + CNC(=O)O/N=C/C(C)(C)SC [aldicarb]	inactive: 0
C#Cc1cccc(NC(=O)/C=C/c2ccc(Cl)cc2)c1 [wact-348] + CNC(=O)O/N=C/C(C)(C)SC [aldicarb]	inactive: 0
Cc1cc(C(F)F)n2ncc(C(=O)Nc3cnn(Cc4ccc(Cl)cc4Cl)c3)c2n1 [wact-87] + CNC(=O)O/N=C/C(C)(C)SC [aldicarb]	inactive: 0
O=C(c1cc(COc2ccc3ncccc3c2)on1)N1CCC(c2ccncc2)CC1 [wact-262] + CNC(=O)O/N=C/C(C)(C)SC [aldicarb]	inactive: 0
O=C(Nc1ccc([N+](=O)[O-])cc1)N1CCN(c2ccc(F)cc2)CC1 [wact-442] + CNC(=O)O/N=C/C(C)(C)SC [aldicarb]	inactive: 0
CC(Cc1cnccn1)NC(=O)c1csc2nc(-c3cccc(C(F)(F)F)c3)cn12 (configuration not stated) [wact-294] + CNC(=O)O/N=C/C(C)(C)SC [aldicarb]	inactive: 0
Cl.c1ccc(-c2ccc(OCCCN3CCOCC3)cc2)cc1 [wact-151] + CNC(=O)O/N=C/C(C)(C)SC [aldicarb]	inactive: 0
O=C(Nc1ccc(C(F)(F)F)cc1Cl)c1cccs1 [wact-145] + CNC(=O)O/N=C/C(C)(C)SC [aldicarb]	inactive: 0
Cc1cc(C)n2ncc(-c3cccc(Br)c3)c2n1 [wact-488] + CNC(=O)O/N=C/C(C)(C)SC [aldicarb]	inactive: 0
COc1ccc(CN2CCCC(C(=O)c3ccc(Cl)cc3)C2)cc1 (configuration not stated) [wact-306] + CNC(=O)O/N=C/C(C)(C)SC [aldicarb]	inactive: 0
Cc1ccc(C(=O)O/N=C(\N)c2ccncc2)c(C)c1 [wact-100] + CNC(=O)O/N=C/C(C)(C)SC [aldicarb]	inactive: 0
CCOc1ccc(Br)cc1C(=O)NC(C)c1ccccc1 (configuration not stated) [wact-521] + CNC(=O)O/N=C/C(C)(C)SC [aldicarb]	inactive: 0

An excerpt of these results, comma-delimited:
SMILES,aldicarb interaction hit call
O=C(c1cccc(Br)c1)N1CCN(c2ccnc3cc(Cl)ccc23)CC1 [wact-116] + CNC(=O)O/N=C/C(C)(C)SC [aldicarb],inactive: 0
CN(Cc1ccccc1)c1cc(-c2ccccc2)ncn1 [wact-189] + CNC(=O)O/N=C/C(C)(C)SC [aldicarb],inactive: 0
CC(Oc1ccccc1)c1nc(-c2ccc(Cl)cc2)no1 (configuration not stated) [wact-185] + CNC(=O)O/N=C/C(C)(C)SC [aldicarb],inactive: 0
c1ccc2c(c1)CCC2NCc1c[nH]nc1-c1cc2ccccc2o1 (configuration not stated) [wact-266] + CNC(=O)O/N=C/C(C)(C)SC [aldicarb],inactive: 0
Cc1cc([N+](=O)[O-])ccc1NCc1ccccc1 [wact-594] + CNC(=O)O/N=C/C(C)(C)SC [aldicarb],inactive: 0
Brc1ccc2[nH]c3c(c2c1)CCCC3NCc1ccccc1 (configuration not stated) [wact-392] + CNC(=O)O/N=C/C(C)(C)SC [aldicarb],inactive: 0
c1ccc(-c2noc(-c3cccs3)n2)cc1 [wact-7] + CNC(=O)O/N=C/C(C)(C)SC [aldicarb],inactive: 0
CSc1cc(-c2ccccc2)ncn1 [wact-197] + CNC(=O)O/N=C/C(C)(C)SC [aldicarb],inactive: 0
CCOc1cc(Cl)c(S(=O)(=O)NCc2ccncc2)cc1Cl [wact-132] + CNC(=O)O/N=C/C(C)(C)SC [aldicarb],inactive: 0
c1ccc(C2CCC(N3CCN(c4ccccc4)CC3)CC2)cc1 (configuration not stated) [wact-48] + CNC(=O)O/N=C/C(C)(C)SC [aldicarb],inactive: 0
Oc1cccc2ccc(/C=C/c3cccs3)nc12 [wact-605] + CNC(=O)O/N=C/C(C)(C)SC [aldicarb],active: 1
